Assay results taken from publication PMC7372886.

The chains behind the UniProt entries cited, without tags or fusion partners.
UniProt P49327: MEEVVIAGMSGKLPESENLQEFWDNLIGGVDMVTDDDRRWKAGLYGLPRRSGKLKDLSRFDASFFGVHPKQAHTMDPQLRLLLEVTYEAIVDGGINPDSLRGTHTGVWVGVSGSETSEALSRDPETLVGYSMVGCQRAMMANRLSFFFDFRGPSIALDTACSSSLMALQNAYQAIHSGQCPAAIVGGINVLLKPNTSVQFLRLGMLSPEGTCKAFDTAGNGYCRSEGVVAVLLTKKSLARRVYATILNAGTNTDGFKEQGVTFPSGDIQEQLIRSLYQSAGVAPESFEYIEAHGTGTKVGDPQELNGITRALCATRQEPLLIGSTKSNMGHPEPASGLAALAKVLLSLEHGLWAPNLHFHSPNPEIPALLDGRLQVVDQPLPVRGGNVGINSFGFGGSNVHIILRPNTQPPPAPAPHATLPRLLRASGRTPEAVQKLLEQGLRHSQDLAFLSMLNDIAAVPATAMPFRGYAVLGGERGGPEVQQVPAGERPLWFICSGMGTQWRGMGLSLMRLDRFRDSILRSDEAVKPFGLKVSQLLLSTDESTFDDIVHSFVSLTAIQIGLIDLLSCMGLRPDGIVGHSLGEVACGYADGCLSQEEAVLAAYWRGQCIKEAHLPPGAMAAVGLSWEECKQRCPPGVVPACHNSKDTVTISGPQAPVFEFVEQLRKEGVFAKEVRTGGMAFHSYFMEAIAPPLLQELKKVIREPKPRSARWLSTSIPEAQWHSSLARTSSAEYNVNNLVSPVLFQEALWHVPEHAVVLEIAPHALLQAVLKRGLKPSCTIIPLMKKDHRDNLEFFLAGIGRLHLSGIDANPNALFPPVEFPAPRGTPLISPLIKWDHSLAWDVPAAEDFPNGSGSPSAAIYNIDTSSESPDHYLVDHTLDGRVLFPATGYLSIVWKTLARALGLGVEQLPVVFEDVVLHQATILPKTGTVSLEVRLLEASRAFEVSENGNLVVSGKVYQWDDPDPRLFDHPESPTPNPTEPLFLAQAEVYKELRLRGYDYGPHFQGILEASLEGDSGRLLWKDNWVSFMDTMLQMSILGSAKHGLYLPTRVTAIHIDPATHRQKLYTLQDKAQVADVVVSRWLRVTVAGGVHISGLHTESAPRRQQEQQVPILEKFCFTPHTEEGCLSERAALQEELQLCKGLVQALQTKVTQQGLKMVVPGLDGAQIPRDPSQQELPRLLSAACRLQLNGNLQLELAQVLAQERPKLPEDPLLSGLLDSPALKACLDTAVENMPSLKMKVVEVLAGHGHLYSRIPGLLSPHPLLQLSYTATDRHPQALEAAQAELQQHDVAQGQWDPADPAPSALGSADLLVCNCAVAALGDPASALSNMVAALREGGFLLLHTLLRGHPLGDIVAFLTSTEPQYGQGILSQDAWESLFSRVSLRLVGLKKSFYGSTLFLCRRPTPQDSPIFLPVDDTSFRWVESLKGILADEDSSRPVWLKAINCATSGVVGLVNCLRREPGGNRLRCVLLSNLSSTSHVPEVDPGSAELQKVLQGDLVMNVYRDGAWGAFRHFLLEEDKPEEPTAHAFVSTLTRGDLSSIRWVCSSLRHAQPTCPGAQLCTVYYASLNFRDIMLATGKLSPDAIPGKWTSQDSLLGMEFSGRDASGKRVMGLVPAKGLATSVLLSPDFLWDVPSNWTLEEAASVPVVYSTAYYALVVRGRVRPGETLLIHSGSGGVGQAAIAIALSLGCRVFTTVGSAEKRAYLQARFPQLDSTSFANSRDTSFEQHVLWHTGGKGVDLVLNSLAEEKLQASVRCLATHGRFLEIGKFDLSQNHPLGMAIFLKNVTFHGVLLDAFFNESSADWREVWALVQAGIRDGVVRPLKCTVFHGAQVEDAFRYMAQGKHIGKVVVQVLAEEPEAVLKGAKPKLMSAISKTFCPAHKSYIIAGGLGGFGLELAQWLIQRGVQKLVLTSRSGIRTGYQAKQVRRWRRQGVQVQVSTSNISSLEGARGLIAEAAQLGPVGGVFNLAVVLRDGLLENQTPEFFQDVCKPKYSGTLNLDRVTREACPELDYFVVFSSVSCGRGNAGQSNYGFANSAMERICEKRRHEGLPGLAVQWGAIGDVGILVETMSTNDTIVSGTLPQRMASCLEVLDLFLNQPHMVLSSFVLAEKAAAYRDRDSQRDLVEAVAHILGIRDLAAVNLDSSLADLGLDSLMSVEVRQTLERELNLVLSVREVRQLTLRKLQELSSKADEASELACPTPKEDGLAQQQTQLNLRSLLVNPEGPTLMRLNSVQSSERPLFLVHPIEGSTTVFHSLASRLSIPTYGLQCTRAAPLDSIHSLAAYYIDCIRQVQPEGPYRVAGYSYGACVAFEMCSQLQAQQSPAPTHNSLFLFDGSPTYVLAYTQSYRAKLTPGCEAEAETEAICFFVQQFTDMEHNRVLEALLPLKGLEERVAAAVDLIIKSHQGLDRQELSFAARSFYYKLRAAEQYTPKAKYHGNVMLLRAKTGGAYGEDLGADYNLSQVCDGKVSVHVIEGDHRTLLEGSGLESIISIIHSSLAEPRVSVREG

What follows are binders tested against Fatty acid synthase (human (endogenous in HepG2 and SMMC7721)) (UniProt P49327) (assay: affinity purification with mass spectrometry; FASN antibody and Protein A/G agarose beads on whole cell lysates of HepG2 cells transfected with control siRNA or FASN siRNA; eluted proteins iTRAQ-labelled (114, 117 against 118, 121), Nano LC ESI MS/MS).

Binder	binding
Tropomodulin-1 (protein, UniProt P28289 1-359) MSYRRELEKYRDLDEDEILGALTEEELRTLENELDELDPDNALLPAGLRQKDQTTKAPTGPFKREELLDHLEKQAKEFKDREDLVPYTGEKRGKVWVPKQKPLDPVLESVTLEPELEEALANASDAELCDIAAILGMHTLMSNQQYYQALSSSSIMNKEGLNSVIKPTQYKPVPDEEPNSTDVEETLERIKNNDPKLEEVNLNNIRNIPIPTLKAYAEALKENSYVKKFSIVGTRSNDPVAYALAEMLKENKVLKTLNVESNFISGAGILRLVEALPYNTSLVEMKIDNQSQPLGNKVEMEIVSMLEKNATLLKFGYHFTQQGPRLRASNAMMNNNDLVRKRRLADLTGPIIPKCRSGV	binds
5′-nucleotidase (protein, UniProt P21589 27-549) WELTILHTNDVHSRLEQTSEDSSKCVNASRCMGGVARLFTKVQQIRRAEPNVLLLDAGDQYQGTIWFTVYKGAEVAHFMNALRYDAMALGNHEFDNGVEGLIEPLLKEAKFPILSANIKAKGPLASQISGLYLPYKVLPVGDEVVGIVGYTSKETPFLSNPGTNLVFEDEITALQPEVDKLKTLNVNKIIALGHSGFEMDKLIAQKVRGVDVVVGGHSNTFLYTGNPPSKEVPAGKYPFIVTSDDGRKVPVVQAYAFGKYLGYLKIEFDERGNVISSHGNPILLNSSIPEDPSIKADINKWRIKLDNYSTQELGKTIVYLDGSSQSCRFRECNMGNLICDAMINNNLRHTDEMFWNHVSMCILNGGGIRSPIDERNNGTITWENLAAVLPFGGTFDLVQLKGSTLKKAFEHSVHRYGQSTGEFLQVGGIHVVYDLSRKPGDRVVKLDVLCTKCRVPSYDPLKMDEVYKVILPNFLANGGDGFQMIKDELLRHDSGDQDINVVSTYISKMKVIYPAVEGRIKFS	binds
Leucine-rich repeat and calponin homology domain-containing protein 3 (protein, UniProt Q96II8 1-777) MAAAGLVAVAAAAEYSGTVASGGNLPGVHCGPSSGAGPGFGPGSWSRSLDRALEEAAVTGVLSLSGRKLREFPRGAANHDLTDTTRADLSRNRLSEIPIEACHFVSLENLNLYQNCIRYIPEAILNLQALTFLNISRNQLSTLPVHLCNLPLKVLIASNNKLVSLPEEIGHLRHLMELDVSCNEIQTIPSQIGNLEALRDLNVRRNHLVHLPEELAELPLIRLDFSCNKITTIPVCYRNLRHLQTITLDNNPLQSPPAQICIKGKVHIFKYLNIQACKIAPDLPDYDRRPLGFGSCHEELYSSRPYGALDSGFNSVDSGDKRWSGNEPTDEFSDLPLRVAEITKEQRLRRESQYQENRGSLVVTNGGVEHDLDQIDYIDSCTAEEEEAEVRQPKGPDPDSLSSQFMAYIEQRRISHEGSPVKPVAIREFQKTEDMRRYLHQNRVPAEPSSLLSLSASHNQLSHTDLELHQRREQLVERTRREAQLAALQYEEEKIRTKQIQRDAVLDFVKQKASQSPQKQHPLLDGVDGECPFPSRRSQHTDDSALCMSLSGLNQVGCAATLPHSSAFTPLKSDDRPNALLSSPATETVHHSPAYSFPAAIQRNQPQRPESFLFRAGVRAETNKGHASPLPPSAAPTTDSTDSITGQNSRQREEELELIDQLRKHIEYRLKVSLPCDLGAALTDGVVLCHLANHVRPRSVPSIHVPSPAVPKLTMAKCRRNVENFLEACRKIGVPQEQLCLPLHILEEKGLSQVAVTVQALLELAPPKQQQHQLSAV	binds
CD59 glycoprotein (protein, UniProt P13987 26-102) LQCYNCPNPTADCKTAVNCSSDFDACLITKAGLQVYNKCWKFEHCNFNDVTTRLRENELTYYCCKKDLCNFNEQLEN	binds
Allograft inflammatory factor 1-like (protein, UniProt Q9BQI0 1-150) MSGELSNRFQGGKAFGLLKARQERRLAEINREFLCDQKYSDEENLPEKLTAFKEKYMEFDLNNEGEIDLMSLKRMMEKLGVPKTHLEMKKMISEVTGGVSDTISYRDFVNMMLGKRSAVLKLVMMFEGKANESSPKPVGPPPERDIASLP	binds
Putative RNA-binding protein 3 (protein, UniProt P98179 1-157) MSSEEGKLFVGGLNFNTDEQALEDHFSSFGPISEVVVVKDRETQRSRGFGFITFTNPEHASVAMRAMNGESLDGRQIRVDHAGKSARGTRGGGFGAHGRGRSYSRGGGDQGYGSGRYYDSRPGGYGYGYGRSRDYNGRNQGGYDRYSGGNYRDNYDN	binds
Adenylyltransferase and sulfurtransferase MOCS3 (protein, UniProt O95396 1-460) MASREEVLALQAEVAQREEELNSLKQKLASALLAEQEPQPERLVPVSPLPPKAALSRDEILRYSRQLVLPELGVHGQLRLGTACVLIVGCGGLGCPLAQYLAAAGVGRLGLVDYDVVEMSNLARQVLHGEALAGQAKAFSAAASLRRLNSAVECVPYTQALTPATALDLVRRYDVVADCSDNVPTRYLVNDACVLAGRPLVSASALRFEGQITVYHYDGGPCYRCIFPQPPPAETVTNCADGGVLGVVTGVLGCLQALEVLKIAAGLGPSYSGSLLLFDALRGHFRSIRLRSRRLDCAACGERPTVTDLLDYEAFCGSSATDKCRSLQLLSPEERVSVTDYKRLLDSGAFHLLLDVRPQVEVDICRLPHALHIPLKHLERRDAESLKLLKEAIWEEKQGTQEGAAVPIYVICKLGNDSQKAVKILQSLSAAQELDPLTVRDVVGGLMAWAAKIDGTFPQY	binds

Results are given in words; binding and its absence hold for the method and conditions named. Binding seen in cells or lysates may run through a third protein. These calls come from enrichment with a bait or labelling near it, and not all partners need be listed.
